Consider 38 molecules from the supplement of paper PMC12823440, “Inhibitors supercharge kinase turnover through native proteolytic circuits” (Nature, 2025).

The chains behind the UniProt entries cited, without tags or fusion partners. Where a name states a change or a piece, a line headed by the entry shows the natural chain unless it says otherwise.
UniProt P29597: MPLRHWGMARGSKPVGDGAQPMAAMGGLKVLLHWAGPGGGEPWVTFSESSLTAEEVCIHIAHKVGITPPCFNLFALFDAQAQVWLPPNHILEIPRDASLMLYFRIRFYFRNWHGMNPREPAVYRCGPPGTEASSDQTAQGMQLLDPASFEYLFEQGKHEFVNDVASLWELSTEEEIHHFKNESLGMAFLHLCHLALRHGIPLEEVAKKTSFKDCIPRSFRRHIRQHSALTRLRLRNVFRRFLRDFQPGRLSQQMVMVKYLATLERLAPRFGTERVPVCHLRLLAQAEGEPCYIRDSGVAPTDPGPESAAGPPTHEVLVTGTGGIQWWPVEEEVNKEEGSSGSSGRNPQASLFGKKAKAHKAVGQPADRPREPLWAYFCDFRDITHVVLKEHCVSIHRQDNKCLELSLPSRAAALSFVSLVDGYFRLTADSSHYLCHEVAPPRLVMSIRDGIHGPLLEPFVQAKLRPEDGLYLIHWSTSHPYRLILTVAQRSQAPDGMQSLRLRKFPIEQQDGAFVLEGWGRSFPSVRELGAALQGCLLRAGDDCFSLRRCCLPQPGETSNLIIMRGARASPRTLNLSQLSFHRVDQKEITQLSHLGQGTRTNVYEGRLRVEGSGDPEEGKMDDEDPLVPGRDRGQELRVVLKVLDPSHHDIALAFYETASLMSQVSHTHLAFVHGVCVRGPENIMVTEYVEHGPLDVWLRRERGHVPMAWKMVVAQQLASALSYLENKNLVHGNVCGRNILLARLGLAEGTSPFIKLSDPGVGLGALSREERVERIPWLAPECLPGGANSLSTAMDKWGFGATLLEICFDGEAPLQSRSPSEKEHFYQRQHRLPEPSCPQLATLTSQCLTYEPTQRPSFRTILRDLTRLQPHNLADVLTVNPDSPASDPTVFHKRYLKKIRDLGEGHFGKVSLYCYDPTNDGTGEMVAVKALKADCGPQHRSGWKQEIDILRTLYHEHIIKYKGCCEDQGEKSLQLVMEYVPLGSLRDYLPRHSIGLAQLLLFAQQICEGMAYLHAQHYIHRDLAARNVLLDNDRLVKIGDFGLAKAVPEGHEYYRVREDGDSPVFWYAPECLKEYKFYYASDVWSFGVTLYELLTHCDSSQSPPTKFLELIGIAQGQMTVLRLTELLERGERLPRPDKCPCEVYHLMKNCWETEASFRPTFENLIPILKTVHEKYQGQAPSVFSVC

Where a name gives a salt, the structure may show the parent alone. This is one part of the list. Hit calls seldom repeat between salt and free forms of one compound.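 Kinases were expressed as nanoluciferase fusions in K562 cells and luminescence was read every 4 h between 2 and 18 h as percent of control, DMSO set to 100% and a positive control to 0%. A time point counts as decreased when the signal drops significantly (2 sigma). The hit call is the authors' own, does not follow from the count of time points alone, and its rule is not shown.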

This test concerns the target TYK2 (UniProt P29597). The experiment in a line: number of time points (of 5) at which kinase-Nluc abundance scored as decreased, DMSO-normalised (count); higher = more persistent destabilization. Particulars: K562; 2-18 h.
Regarding `C[C@@H]1COCCN1c1nc(-c2cnc(N)cc2C(F)F)nc(N2[C@H](C)COC[C@@H]2C)n1` (2.5 µM), the “number of time points” value worked out at 0.

With `O=C(O)c1cc(=O)c2c(OCC(O)COc3cccc4oc(C(=O)O)cc(=O)c34)cccc2o1` [Cromolyn (sodium)] (10 µM), the “number of time points” value was found to be 0. In the case of `CCc1ccc(OCC(=O)Nc2ccc(F)c([N+](=O)[O-])c2)cc1` (10 µM) it was 0; in that of `CC(C)S(=O)(=O)c1ccc2nccc(Nc3ccc4scnc4c3)c2c1` (10 µM), 0. Next, `CN1CC[C@@H](c2c(O)cc(O)c3c(=O)cc(-c4ccc(C(F)(F)F)cc4Cl)oc23)[C@@H]1CO` [Voruciclib (hydrochloride)] (10 µM): 0; `CC(C)=CC(=O)O[C@H]1Cc2cc3ccc(=O)oc3cc2OC1(C)C` [Decursin] (10 µM): 0; `CC(C)C[C@@H](C(=O)Nc1ccn(C[C@@H](O)CO)n1)N1CC(Oc2ccccc2Cl)=CC1=O` [Dorzagliatin] (10 µM): 0. With `CC(C)N1CCN(c2ccc(Nc3ncc4cc5n(c4n3)C3(CCCCC3)CNC5=O)nc2)CC1` [Lerociclib (dihydrochloride)] (2 µM), the “number of time points” value amounted to 2. In the case of `CCCCCCCCCCCCCCCCOP(=O)([O-])OCC[N+](C)(C)C` [Miltefosine] (10 µM) it was 0; in that of `COCCNc1cc(NC(=O)N2CCCc3cc(CN4CCN(C)CC4=O)c(C=O)nc32)ncc1C#N` [Roblitinib] (10 µM), 0. On to `Cc1ccc(NC(=O)c2ccc(CN(CCN(C)C)C(=O)c3cccnc3)cc2)cc1Nc1nccc(-c2cccnc2)n1` [PDGFRα kinase inhibitor 1] (10 µM), for which the “number of time points” value stood at 0. In the case of `c1ccc(-c2nc(=NCCN3CCOCC3)sn2-c2ccccc2)cc1` [VP3.15 (dihydrobromide)] (10 µM) it was 0; in that of `O=C1NC(=Nc2c(Cl)cccc2Cl)S/C1=C\c1ccc2nccnc2c1` (2.5 µM), 0. In the case of `Cc1cc(-c2ccnc(Nc3cnn(C)c3)n2)ccc1CNC(=O)N1CC(OC(C)C)C1` (10 µM) it was 0.

As for `CN(C)S(=O)(=O)c1ccc2c(c1)/C(=C/c1cc3c([nH]1)CCCC3)C(=O)N2` (2.5 µM), the “number of time points” value is 0. In the case of `Cc1cnc(NC2CCOCC2)nc1-n1cnc(C(=O)N[C@H](CN)c2cc(F)cc(Cl)c2)c1` (10 µM) it was 0; in that of `N#CC(c1ccnc(OCc2ccc(CN3CCOCC3)cc2)n1)c1nc2ccccc2s1` (stereo not drawn) [Bentamapimod] (2.5 µM), 0; in that of `Cc1c(-c2ccc(C(N)=O)c3[nH]c4cc(C(C)(C)O)ccc4c23)cccc1-n1cnc2ccccc2c1=O` (2.5 µM), 0.

For `CN(C)c1nc2c(Br)c(Br)c(Br)c(Br)c2[nH]1` (10 µM), the “number of time points” value came out at 0.

Turning to `Nc1ncnc2c1c(-c1ccc(Oc3ccccc3)cc1)nn2C1CCN(CCOCCOCCOc2ccc3c(c2)CN(C2CCC(=O)NC2=O)C3=O)CC1` (stereo not drawn) (2.5 µM), the “number of time points” value worked out at 0. In the case of `O=[N+]([O-])c1ccc(Nc2nc(N3CCOCC3)nc(N3CCOCC3)n2)cc1` (10 µM) it was 0; in that of `C[C@H](Nc1ncnc2[nH]cnc12)c1cc2ccc(F)cc2nc1-c1ccccn1` (10 µM), 0. For the molecule `CCc1cccc(CC)c1NC(=O)N1Cc2[nH]nc(NC(=O)c3ccc(N4CCN(C)CC4)cc3)c2C1` (2.5 µM), the “number of time points” value worked out at 3. Turning to `CCc1cncnc1N1CCN(Cc2nc3ccc(C(F)(F)F)cc3[nH]2)CC1` (10 µM), the “number of time points” value came out at 0. Regarding `COc1cc(-c2cn[nH]c2)ccc1C(=O)Nc1ccc2c(c1)CCNCC2` (10 µM), the “number of time points” value was 0.

`Cn1cc2cc(C(F)(F)c3nnc4ccc(-c5cnn(C6CC6)c5)nn34)c(F)cc2n1` [Bozitinib] (10 µM): the “number of time points” value is 0. As to `O=Nc1c2[nH]c3ccccc3nc-2c2ccccc12` [IQ-1S (free acid)] (2.5 µM), the “number of time points” value was found to be 0.

For the molecule `CCN(CC)c1cc2oc(=O)c(-c3nc4ccccc4o3)cc2cc1C` (2.5 µM), the “number of time points” value was found to be 0. On to `COc1cc(N2CCOCC2)ccc1NC(=O)c1csc(-c2cccnc2)n1` [IRAK inhibitor 6] (10 µM), for which the “number of time points” value was found to be 0.

With `CNc1nc(Nc2cn(C(C)(C)C#N)nc2C)ncc1C(F)(F)F` (10 µM), the “number of time points” value is 0. In the case of `COc1nn(C)cc1Nc1nccc(-c2c[nH]c3c(NC(=O)[C@@H](C)N4CCN(C)CC4)cccc23)n1` (10 µM) it was 0; in that of `N#Cc1ccnc(Nc2cc(C3CCN(C4COC4)CC3)cc(N3CCC(F)(F)C3)n2)c1` (2.5 µM), 0; in that of `Cc1cccc2c3c(ccc12)C(=O)C1=C(OCC1C)C3=O` (stereo not drawn) [Dihydroisotanshinone I] (2.5 µM), 0. With `CNc1nc(Nc2ccc(C(=O)N3CCOCC3)cc2OC)ncc1Cl` (2.5 µM), the “number of time points” value was 0. In the case of `CCN(CC)c1ccc2cc(-c3nc4cc(C)ccc4o3)c(=O)oc2c1` (10 µM) it was 0. Next, `COc1ccccc1C(=O)/C=C/c1ccccc1C(=O)O` (10 µM): 0. On to `CC(=O)N1CCC(c2cc(-c3ccc(NC(=O)c4cccn(-c5ccc(F)cc5)c4=O)cc3F)c3c(N)ncnn23)CC1` (0.5 µM), for which the “number of time points” value worked out at 0. On to `O[C@@H]1CO[C@H]2[C@@H]1OC[C@H]2Oc1nc2nc(-c3ccc(-c4ccccc4)cc3)c(Cl)cc2[nH]1` (10 µM), for which the “number of time points” value was 0.
